About 1,400 (4.5%) of roughly 31,000 sequences were called active.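 The calls were made as follows: active = median seed-adjusted z-score above 1 or below -1; inactive = the rest.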 The list shows a part of the results.
Experiment: Novel Modifiers of Survival Motor Neuron (SMN) Protein: Gene Identification via Genome-wide siRNA Screen;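 also: luminescence tracks full-length SMN protein made from the SMN2 reporter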
Settings: HEK293T SMN2-luciferase reporter, siRNA knockdown, 72 h; actives lie on both sides
Outline: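 Each of three siRNAs per gene is reverse-transfected (1 pmol) into reporter HEK293T cells whose luciferase output tracks SMN protein level. After 72 h culture, ONE-Glo luminescence is control-normalized, log10-transformed and MAD-standardized; Common Seed Analysis deprioritizes seed-driven hits.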

Sequence	median seed-adjusted z-score
CCAUUCCAAGGACCAAUGATT against SLC2A10	inactive: -0.0407
ACGACUCCAUUGCCGAGGATT against POLR3H	inactive: 0
GCUAUGAUGUAGUAAAGGATT against CYP2R1	inactive: -0.981
GUUCAAUAGUGAAACUCGATT against PTPN22	inactive: -0.0843
CCUCAAGGAUUGGGACUAUTT against SLC22A17	inactive: -0.149
GAGAGCAACUUAAAGACGATT against ST18	inactive: 0.0762
ACUUAUUUGGAUUUCCUUUTT against MYOG	inactive: -0.0972
CAUGUUCUCUAAUAGCACATT against KDR	inactive: 0.0728
GGAAAAGUUCUGAAGACUATT against CPOX	inactive: -0.135
CUUCCCGUUUGAUUACCAATT against CHRNA3	inactive: -0.359
GAACUGUGAAUUAGAUGUATT against F9	inactive: 0.332
GAAGGAUGUUGGUCCUAGATT against SIK2	inactive: 0.055
GUUGCUCACUGAGACCAAATT against TDRKH	inactive: -0.434
CUUUCACAGUGGACAGUAATT against CNTF	inactive: 0.3
CCAAGCUCCAUAUUAUUAATT against CLIC6	inactive: -0.00828
GUUAUUCCCUGUUCUCGAATT against ALDH5A1	inactive: 0.339
UCUGCAUCGUGGUAUCCAATT against GLP1R	inactive: 0
AGAAGGUGACUCAAAGAAUTT against WFDC1	inactive: 0.152
CAACCUCACUGCAAACAGUTT against TMCO6	inactive: -0.227
AGAUAGACACUUUCUUUUUTT against LILRB5	inactive: 0.834
CAACUAAGCGAGGAGCAAATT against RACGAP1	inactive: 0
GCCGAACACUUCUCCAUCATT against MEX3D	inactive: -0.337
AGAUAUUUUUACAAGCUAATT against TWIST2	inactive: 0.363
CUAUCGGUGUGGGAAAGAATT against RBM4B	inactive: -0.251
GCACAAACCUUGGGUCGAATT against DBF4	inactive: -0.319
GAUACGAUGUUCAACGGAATT against SHPRH	inactive: 0.169
UCAACUGUCUUUUACCCAATT against TKT	inactive: 0.0314
CAACCGCAAUGGUGAUGAATT against SLC12A5	inactive: -0.22
GACCCACGCUUUUCUAAGATT against CKMT2	inactive: -0.862
CAACGAAGUUGAUGAUCAUTT against ZNF432	inactive: -0.124

Another view of some results above:

| Sequence | median seed-adjusted z-score |
| --- | --- |
| GAGAGCAACUUAAAGACGATT against ST18 | inactive: 0.0762 |
| GUUAUUCCCUGUUCUCGAATT against ALDH5A1 | inactive: 0.339 |
